# Measurements as given in the supplement of paper PMC12578635.
# Some of the results follow. Rule as the data show it: active = 150% or more and inactive = the rest. Repeats are few or missing, and single values can be far off.
# System: Staphylococcus aureus JE2-lux inside RAW 264.7 macrophages
# Experiment: intracellular bacterial bioluminescence relative to DMSO vehicle; higher = higher intracellular bacterial metabolic activity
# Settings: 10 µM; treatment time 4 h; gentamicin 50 µg/ml
# Procedure: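 RAW 264.7 macrophages infected with bioluminescent MRSA JE2-lux (MOI 100) were dispensed into 384-well plates with 10 µM compound in the presence of 50 µg/ml gentamicin. After 4 h at 37 °C, bacterial bioluminescence (a proxy for intracellular bacterial metabolic activity) and host cell viability (CellTiter-Fluor) were read and normalised to 0.1% DMSO vehicle controls. Single-pass screen of the UNC CICBDD kinase-targeted library (>4,700 compounds).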
row,Compound,intracellular bacterial bioluminescence
1,CC1(C)COc2ccc(NC(=O)COc3ccc(F)cc3)cc2NC1=O,inactive: 96.2%
2,NC(=O)c1c(NC(=O)c2cc3c(ccc4ccccc43)oc2=O)sc2c1CCCCC2,inactive: 111%
3,CCn1cc(NC(=O)Nc2ccccc2C(N)=O)c2ccccc21,inactive: 98.7%
4,COc1cc(C(C)=O)ccc1Oc1ncnc(N)c1[N+](=O)[O-],inactive: 84.2%
5,C=CCOc1ccccc1NC(=O)Cn1nc(C(F)(F)F)c2c1CCCC2,inactive: 103%
6,Cc1c(C(=O)Nc2cccc(Cl)c2)sc2nc3n(c(=O)c12)N=C(c1ccc(O)c(O)c1)CS3,inactive: 96.5%
7,Cc1c(Cc2ccc3c(c2)OCO3)sc(NC(=O)c2nc3ccccc3s2)c1C#N,inactive: 99%
8,CCn1nc(C)c2ccnc(N3CCC(C(=O)Nc4ccc(Br)c(C)c4)CC3)c21,inactive: 72.7%
9,Cc1ccccc1-n1nc2c(c1NC(=O)c1cc3ccccc3oc1=O)CSC2,inactive: 78%
10,Cc1ccc(-c2c(C(F)(F)F)nn3c(O)cc(C)nc23)cc1,inactive: 130%
11,Fc1ccc(-n2c(SCc3cccnc3)nnc2-c2cccnc2)cc1,inactive: 119%
12,COc1cccc(/C=C2/SC(=S)N(CC(=O)Nc3ccccc3C(=O)O)C2=O)c1,inactive: 87.6%
13,O=C(CSCc1ccccc1)Nc1ccccc1F,inactive: 98.4%
14,CC(=O)c1cc(OC(=O)N2CCOCC2)ccc1OC(=O)N1CCOCC1,inactive: 109%
15,O=C(O)c1ccc(CN2C(=O)SC(Nc3ccccc3C(=O)O)C2=O)cc1 (configuration not stated),inactive: 94.2%
16,CC1CCc2c(sc3nc(SCC(=O)c4cccs4)[nH]c(=O)c23)C1 (configuration not stated),inactive: 86.7%
17,CCOC(=O)C1CCN(C(=O)C2CCN(c3nccc4c(C)nn(CC)c34)CC2)CC1,inactive: 104%
18,COc1ccc(Br)cc1CNC(=O)COc1nc(C)nc2oc(C)c(C)c12,inactive: 102%
19,O=C(Nc1ccc(S(=O)(=O)Nc2cncs2)cc1)c1ccc(-c2cccc(C(F)(F)F)c2)o1,inactive: 104%
20,CCOc1ccc(NC(=O)CSc2nncc(=O)[nH]2)cc1,inactive: 13.4%
21,N#Cc1ccccc1NC(=O)C(=O)NCc1ccccc1Cl,inactive: 111%
22,O=C(CCn1c(=S)oc2ccccc21)Nc1ccc(O)c(-c2nc3ccccc3o2)c1,inactive: 87.6%
23,COc1ccccc1CCNC(=O)CSc1nc(=O)n(Cc2ccco2)c2c1CCC2,inactive: 106%

row,Compound,intracellular bacterial bioluminescence
1,CN(C(=O)CSc1nc(=O)n2ccccc2n1)c1ccccc1,inactive: 116%
2,CN1C(=O)c2cccc(NC(=O)c3sc4ccccc4c3Cl)c2C1=O,inactive: 149%
3,O=C(CSC1=NS(=O)(=O)c2ccccc2N1)Nc1ccc(Br)cc1,inactive: 91.9%
4,O=C(CCS(=O)(=O)c1ccccc1)Nc1cccc2c1C(=O)NC2=O,inactive: 111%
5,CCn1cc(C(=O)N2CCc3ccccc3C2)c(=O)c2ccc(C)nc21,inactive: 92.3%
6,Cc1oc2ncnc(OCC(=O)Nc3ccc(S(N)(=O)=O)cc3)c2c1C,inactive: 54.9%
7,N#C/C(=C\c1ccc(-c2cccc(Cl)c2)o1)c1nc2ccccc2c(=O)[nH]1,inactive: 102%
8,COc1ccc(NC(=S)N2CCC(NC(=O)c3ccccc3)CC2)c(OC)c1,inactive: 116%
9,CCN(C(=O)CSc1nccnc1N1CCN(c2ccccc2)CC1)c1ccccc1,inactive: 35.5%
10,CC(=O)c1cccc(N/C=C(\C#N)c2nc(-c3ccc(F)cc3)cs2)c1,inactive: 122%
11,Cc1nc(-c2csc(S(=O)(=O)Nc3ccc(C)c(Cl)c3)c2)no1,inactive: 67.2%
12,Cc1cccc(N2CCN(S(=O)(=O)c3cc(-c4nc(C)cs4)cs3)CC2C)c1 (configuration not stated),inactive: 81%
13,COc1ccc(-n2ccn3c(CCC(=O)NCC4CCCO4)nnc3c2=O)cc1 (configuration not stated),inactive: 109%
14,Cc1ccccc1-c1nnc2ccc(N3CCC(C(=O)NCCN(C)C)CC3)nn12,inactive: 112%
15,CN1Cc2ccccc2CC1C(=O)N1CCC2(CC1)NC(=O)c1ccccc1O2 (configuration not stated),inactive: 83.8%
16,COCCCn1c(SCC(=O)Nc2ccccc2C(=O)OC)nc2c(sc3ccccc32)c1=O,inactive: 98.4%
17,Cc1oc(-c2ccno2)cc1S(=O)(=O)NC(C)CCc1ccccc1 (configuration not stated),inactive: 89.8%
18,O=C(Nc1cccc(-c2nnc(-c3ccccc3)o2)c1)Nc1ccc2c(c1)OCCO2,inactive: 92.7%
19,CCc1ccc2oc(C(=O)Nc3nc(-c4ccc(C)s4)ns3)cc(=O)c2c1,inactive: 102%
20,O=C(COc1ncnc2ccccc12)NC(c1ccccc1)c1cccnc1 (configuration not stated),inactive: 101%
21,CCOc1ccc(NC(=O)c2cnc3c(c(C)nn3-c3ccccc3)c2Cl)cc1,inactive: 82.9%
22,O=C(Nc1cc(Cl)cc(Cl)c1)c1ccc(N2C(=O)CCC2=O)cc1,inactive: 62.4%
23,O=C(NCCn1cccn1)c1ncoc1-c1ccc(F)cc1,inactive: 130%

# Random excerpt: 4 entries already listed
row,Compound,intracellular bacterial bioluminescence
16,COCCCn1c(SCC(=O)Nc2ccccc2C(=O)OC)nc2c(sc3ccccc32)c1=O,inactive: 98.4%
21,CCOc1ccc(NC(=O)c2cnc3c(c(C)nn3-c3ccccc3)c2Cl)cc1,inactive: 82.9%
17,Cc1oc(-c2ccno2)cc1S(=O)(=O)NC(C)CCc1ccccc1 (configuration not stated),inactive: 89.8%
14,Cc1ccccc1-c1nnc2ccc(N3CCC(C(=O)NCCN(C)C)CC3)nn12,inactive: 112%

# Next part.

row,Compound,intracellular bacterial bioluminescence
1,Cc1ccccc1C(=O)/C(C#N)=C1\Nc2ccccc2N1C,inactive: 96.6%
2,CCc1nc(-n2nc(C)cc2N)c2c3c(sc2n1)CCC3,inactive: 111%
3,CCOC(=O)CCn1c(=O)c2c(nc3n(CCCOC)c(C)c(C)n23)n(C)c1=O,inactive: 98.1%
4,Cc1sc2nc(C)n3c(=O)n(CC(=O)N4CCOCC4)nc3c2c1C,inactive: 110%
5,COc1ccc(-c2nnc3c(C(=O)N4CCC(O)(c5ccc(Cl)cc5)CC4)cccn23)cc1,inactive: 113%
6,Cn1cnc2c(C(=O)O)nn(-c3ccccc3)c2c1=O,inactive: 111%
7,Cc1ccc(C)c(NC(=O)c2cccnc2-c2ccsc2)c1,inactive: 82.6%
8,O=Cc1ccc(OC(=O)CC2SC(=O)NC2=O)cc1 (configuration not stated),inactive: 47%
9,O=C(Nc1ccc2oc(-c3ccccc3F)cc(=O)c2c1)c1ccncc1,inactive: 91.4%
10,Cn1c(SCC(=O)NCCCN2CCOCC2)nc2ccccc2c1=O,inactive: 107%
11,COC(=O)c1c(NC(=O)CC2NCCNC2=O)sc2c1CCCC2 (configuration not stated),inactive: 85.6%
12,CCN1CCN(c2nc3ncn(CC(=O)Nc4ccc5c(c4)OCO5)c(=O)c3s2)CC1,inactive: 83.5%
13,CCS(=O)(=O)c1ccc(CC(=O)Nc2nc3ccc(F)cc3s2)cc1,inactive: 30.7%
14,O=c1[nH]c(-c2ccccc2)nc2sc(-c3ccccc3)cc12,inactive: 119%
15,Cc1c(NC(=O)c2cccc(Cl)c2)c(-n2cnnc2)nn1C,inactive: 100%
16,CCOc1ccc(NC(=O)COc2cccc3c2CCN(Cc2ccc(F)cc2)C3=O)cc1,inactive: 26.4%
17,COc1cccc2c(=O)n(CC(=O)Nc3ccccc3C(F)(F)F)ccc12,inactive: 92.1%
18,CCOC(=O)CNS(=O)(=O)c1ccc2c3c(cccc13)C(=O)N2CC,active: 155%
19,CSc1nc2ccc3nc(NC(=O)c4ccccc4C)sc3c2s1,inactive: 79.7%
20,Cc1oc(-c2ccno2)cc1S(=O)(=O)N1CCCCC1C (configuration not stated),inactive: 91.6%
21,Cc1cn2c(nc3c2c(=O)n(Cc2c(F)cccc2Cl)c(=O)n3C)o1,inactive: 123%
22,Cn1c(=O)n(CC(=O)N2CCCC2)c(=O)c2cc(S(=O)(=O)NCCC3=CCCCC3)ccc21,inactive: 94.9%
23,O=C(Nc1ccc(F)cc1F)c1ccc(SCCN2CCOCC2)nc1,inactive: 82.9%

# An excerpt taken from the entries so far:
row,Compound,intracellular bacterial bioluminescence
13,CCS(=O)(=O)c1ccc(CC(=O)Nc2nc3ccc(F)cc3s2)cc1,inactive: 30.7%
14,O=c1[nH]c(-c2ccccc2)nc2sc(-c3ccccc3)cc12,inactive: 119%
15,Cc1c(NC(=O)c2cccc(Cl)c2)c(-n2cnnc2)nn1C,inactive: 100%
16,CCOc1ccc(NC(=O)COc2cccc3c2CCN(Cc2ccc(F)cc2)C3=O)cc1,inactive: 26.4%

# The list goes on.

row,Compound,intracellular bacterial bioluminescence
1,O=C(Cc1ccccc1)Nc1nc(-c2nc3ccccc3s2)cs1,inactive: 68.4%
2,Cc1ccc2nc(-c3ccc(F)cc3)nc(SCC(=O)N3CCOCC3)c2c1,inactive: 121%
3,Cc1ccc(-c2nc(SCC(=O)NCc3ccco3)c3ccccc3n2)cc1,inactive: 96.8%
4,COc1ccc(NC(=O)Nc2nc3cc(C)c(C)cc3s2)cc1,inactive: 106%
5,O=C(NCc1ccc2c(c1)OCO2)c1ccc(Cl)c(S(=O)(=O)N2CCCC2)c1,inactive: 115%
6,Cc1cc(Nc2ccc(N3CCOCC3)cc2)n2nc(Cc3cccc(F)c3)nc2n1,inactive: 106%
7,CC(CCc1ccco1)NC(=O)Nc1cccc2ccccc12 (configuration not stated),inactive: 116%
8,O=C(O)CCC(=O)Nc1ccc(Cl)cc1-c1nc2ccccc2[nH]c1=O,inactive: 99.8%
9,COc1cc(/C=C(\C#N)c2nc(-c3ccc([N+](=O)[O-])cc3)cs2)ccc1OC(C)=O,inactive: 114%
10,Cc1ccc(C)c(NC(=O)c2cnc(N(C)C)nc2C)c1,inactive: 73.2%
11,CC1=CC2=NC(=O)CC(C)(C(=O)NCc3n[nH]c4c3CCCC4)N2C=C1 (configuration not stated),inactive: 124%
12,O=C(O)Cc1c(-c2ccccc2)c2cc(Cl)ccc2[nH]c1=O,inactive: 105%
13,CCOC(=O)c1sc(NC(=O)CCSc2ccccc2)cc1C,inactive: 19.7%
14,O=C(Nc1sc2c(c1-c1nc3ccccc3s1)CCCC2)c1ccc(N2C(=O)CCC2=O)cc1,inactive: 104%
15,O=C(Cn1c2ccccc2n2c(=O)cc(-c3cccc(Cl)c3)nc12)Nc1nccs1,active: 155%
16,COc1cccc(-n2c(=O)c3sc4ccccc4c3n(CC(=O)NC3CCCCC3)c2=O)c1,inactive: 101%
17,O=C(COc1ncnc2ccccc12)Nc1cccc(C(=O)N2CCOCC2)c1,inactive: 59.7%
18,COc1ccc(S(=O)(=O)NCC2COC3(CCCCC3)O2)cc1F (configuration not stated),inactive: 131%
19,COc1ccc(C(=O)Nc2cc3c4c(c2)CC(=O)N4CCC3)c(OC)c1,inactive: 103%
20,COc1cccc(-n2c(N)cc(=O)nc2SCC(=O)N2CCN(c3ccccc3)CC2)c1,inactive: 102%
21,O=C(O)CC1S/C(=N/c2ccccc2)N(c2ccccc2)C1=O (configuration not stated),inactive: 80.6%
22,CCNc1nc(NCC)nc(Sc2ccc([N+](=O)[O-])cc2[N+](=O)[O-])n1,inactive: 59.6%
23,Cc1oc2ncnc(N3CCCC(C(=O)N4CCN(C5CCCCC5)CC4)C3)c2c1C (configuration not stated),active: 157%
